The list shows a part of the results.
target: OsWRKY34 (Oryza sativa, UniProt Q0JBA9 1-250); assay: protein-binding microarray (RPBM); PBS, 2% BSA, 51.3 ng/ul salmon testes DNA, 50 uM zinc acetate, 200 nM TF, 25 C, 1 h; high values mean tight binding; settings: protein: recombinant; tags: N-terminal polyhistidine and DsRed monomer fusion (pET32a); label: CyDye5-dUTP incorporated in the synthesized complementary strand; 3' TTTTT single-stranded linker to array surface; dsDNA, one strand shown
Summary of the method: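 Using Ni–NTA, transcription factors fused N-terminally to polyhistidine and DsRed were purified after expression in E. coli BL21-CodonPlus. These were incubated at 200 nM with a blocked, double-stranded custom Agilent array for 1 h at 25 °C in a buffer containing 50 µM zinc acetate, and the array was washed. The binding signal is per-feature fluorescence intensity (arbitrary units) on an Axon 4000B scanner.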

The chains behind the UniProt entries cited, without tags or fusion partners.
UniProt Q0JBA9, entry or part of it: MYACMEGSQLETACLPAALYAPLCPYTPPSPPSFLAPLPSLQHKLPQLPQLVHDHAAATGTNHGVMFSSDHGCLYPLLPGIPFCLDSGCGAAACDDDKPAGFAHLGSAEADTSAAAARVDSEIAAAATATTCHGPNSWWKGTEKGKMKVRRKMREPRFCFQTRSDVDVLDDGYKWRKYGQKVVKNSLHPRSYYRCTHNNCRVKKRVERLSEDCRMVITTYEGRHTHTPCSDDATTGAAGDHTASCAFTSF

Row | Sequence | binding signal
1 | GACCGTAATTACCTTAGTGCAAATTCTACATATCTATATACGGAGTCACCTAGTGCAG | 9350 fluorescence intensity (a.u.)
2 | ATTACGGCAGTTTTCTTTATAGTCTCTACTCGTATATATACGGAGTCACCTAGTGCAG | 8690 fluorescence intensity (a.u.)
3 | AAAAACTGTCTCGTCGTCTCGAACCTTCTCGCCTCCCTCACGGAGTCACCTAGTGCAG | 9610 fluorescence intensity (a.u.)
4 | CTCAGTTTGATCATATGGTCATTAAAGTTTTCATTATCTTCGGAGTCACCTAGTGCAG | 11400 fluorescence intensity (a.u.)
5 | TTTCATCCCCACCATTTTTTTTTTGTTTGACCTCGAAAGGCGGAGTCACCTAGTGCAG | 8870 fluorescence intensity (a.u.)
6 | CATTTTATTTCTCACACTTGCTTTACTTATAAATTTATTTCGGAGTCACCTAGTGCAG | 9110 fluorescence intensity (a.u.)
7 | TAATATTTTCATTGCTTTATGTTGAAACTTTTTTATTTCCCGGAGTCACCTAGTGCAG | 9010 fluorescence intensity (a.u.)
8 | AGGGATATTCACTATTTTCATATAACGTTTGACCACTCGTCGGAGTCACCTAGTGCAG | 8950 fluorescence intensity (a.u.)
9 | ATCTCTTTCGATCGGTCGATCTGTAGCTGCTCCTGCTGTTCGGAGTCACCTAGTGCAG | 9190 fluorescence intensity (a.u.)
10 | TGATTGAGACGCTGACTTTTCCTAGTGTAAGTTTGACCACCGGAGTCACCTAGTGCAG | 11800 fluorescence intensity (a.u.)
11 | AAACTGCCATGCCGCATTCTTCTTGAACTCGGACTCTTCTCGGAGTCACCTAGTGCAG | 8310 fluorescence intensity (a.u.)
12 | CGGTGGGTGTGGGAGTTCAGCAAGTTTGACTCTGGGATTTCGGAGTCACCTAGTGCAG | 12000 fluorescence intensity (a.u.)
13 | TACACTCTCACCCGTAACATTACACGTAATAAATTTCACACGGAGTCACCTAGTGCAG | 9000 fluorescence intensity (a.u.)
14 | GTCCAGCGCGGCCGCCTCATCGTCGACGCCGTCGCCGCCCCGGAGTCACCTAGTGCAG | 8030 fluorescence intensity (a.u.)
15 | TTCTCCACGGCAAACCACCACCGGCGTCACCAGCCCACCACGGAGTCACCTAGTGCAG | 8110 fluorescence intensity (a.u.)
16 | AAACTACCGATTTTCTCCAAACTTATCACCAATTATATGACGGAGTCACCTAGTGCAG | 8520 fluorescence intensity (a.u.)
17 | TGCTCTATATACCTGTGAAATTTGCTATATTGTTTCTATTCGGAGTCACCTAGTGCAG | 9100 fluorescence intensity (a.u.)
18 | GCCAGTCAGTCTACATCCATGCAGCTTTGATCATTTCAATCGGAGTCACCTAGTGCAG | 9580 fluorescence intensity (a.u.)
19 | GATATGTACGGTTTTTCTTCTCTCAACTCGTACTAGATAGCGGAGTCACCTAGTGCAG | 8090 fluorescence intensity (a.u.)
20 | GCAGCATCACTCCATGTTCTCTCTTCCTACTCTCCATACTCGGAGTCACCTAGTGCAG | 16800 fluorescence intensity (a.u.)
21 | GACCGGTCCAACCGCTAACCTACAAATACCCGCCTCGCTTCGGAGTCACCTAGTGCAG | 8490 fluorescence intensity (a.u.)
22 | GCTACATATATTCTTCGGCTCGATCAAACATACATCCTTCCGGAGTCACCTAGTGCAG | 10100 fluorescence intensity (a.u.)
23 | ACATTTATCGTTTTATAAAATTTTCTCTCGTATATATTCCCGGAGTCACCTAGTGCAG | 9140 fluorescence intensity (a.u.)
24 | ATTTTACTCTTTTGACTATATTGGTTCGGTTGAAGTTTTACGGAGTCACCTAGTGCAG | 23100 fluorescence intensity (a.u.)
25 | ATATATATATATATATCCATATTCCTTCCCCTCGCACTGTCGGAGTCACCTAGTGCAG | 10100 fluorescence intensity (a.u.)
26 | TCTGATGGGCGCTGGCTATCAATGTATGTCACTGTGTTGTCGGAGTCACCTAGTGCAG | 8230 fluorescence intensity (a.u.)
27 | CCACCTTGCTCAACGCGTTGTCGCTGTCCTGGTCGCCTTCCGGAGTCACCTAGTGCAG | 8720 fluorescence intensity (a.u.)

In a second layout: results already given.
CTCAGTTTGATCATATGGTCATTAAAGTTTTCATTATCTTCGGAGTCACCTAGTGCAG
  binding signal = 11400 fluorescence intensity (a.u.)
TTTCATCCCCACCATTTTTTTTTTGTTTGACCTCGAAAGGCGGAGTCACCTAGTGCAG
  binding signal = 8870 fluorescence intensity (a.u.)
CATTTTATTTCTCACACTTGCTTTACTTATAAATTTATTTCGGAGTCACCTAGTGCAG
  binding signal = 9110 fluorescence intensity (a.u.)
TAATATTTTCATTGCTTTATGTTGAAACTTTTTTATTTCCCGGAGTCACCTAGTGCAG
  binding signal = 9010 fluorescence intensity (a.u.)

More entries.

Row | Sequence | binding signal
28 | ACCTCCTCTTCCCATCTCGCCTCACGCCATTTTTCATTGCCGGAGTCACCTAGTGCAG | 11200 fluorescence intensity (a.u.)
29 | AGGACCACGTATTACCCGTACAAATTAGCAACCGCGCGCGCGGAGTCACCTAGTGCAG | 9030 fluorescence intensity (a.u.)
30 | CGCCGTGTCCCTGCTCCAGAACCGCGCCCACGTCGTCTTCCGGAGTCACCTAGTGCAG | 10500 fluorescence intensity (a.u.)
31 | CCGGCCGCCGCCTCTGACCTTACGTATAATTTTTCTTTCCCGGAGTCACCTAGTGCAG | 11400 fluorescence intensity (a.u.)
32 | TTTGTGTGGAGGGTGGTTTGTAATATCTCTTCCACCCCTACGGAGTCACCTAGTGCAG | 8250 fluorescence intensity (a.u.)
33 | CATTACTCTACTCCACTGATTATTCTTGTCTTGTTAGTATCGGAGTCACCTAGTGCAG | 9800 fluorescence intensity (a.u.)
34 | CTCCCTGTGGGCTTTCTACCTCATCCTAGCAATCTCCATGCGGAGTCACCTAGTGCAG | 8620 fluorescence intensity (a.u.)
35 | GCATGGTGGCGGCGGGAAGGAGGAGTGGGGCGGCGGGTGCCGGAGTCACCTAGTGCAG | 16100 fluorescence intensity (a.u.)
36 | GGTGGCGCGACTTCTTCCTCTTTCTCTTTTGCTTTCCTGGCGGAGTCACCTAGTGCAG | 8760 fluorescence intensity (a.u.)
37 | GCTGACCATTGATTGATTCCCATAATTACCTAGAGAACTTCGGAGTCACCTAGTGCAG | 8300 fluorescence intensity (a.u.)
38 | CTTCACACACGCCATAACCCATATCTTACACAGACATGTGCGGAGTCACCTAGTGCAG | 8760 fluorescence intensity (a.u.)
39 | GGCGCTTCTAGGGTTTGGTGGGGTTCGGGCGGGCGCGCCGCGGAGTCACCTAGTGCAG | 15600 fluorescence intensity (a.u.)
40 | ACCTTAATTCATCCCAGCGCACACATTCAGGCATTTGTTTCGGAGTCACCTAGTGCAG | 8460 fluorescence intensity (a.u.)
41 | ATTCGCGGCTTTAATCTCATTTGTATACATGGATTGACTACGGAGTCACCTAGTGCAG | 9310 fluorescence intensity (a.u.)
42 | GTCCGTCTGCTTGTATTCGAAACCCCAACTTATCTTGTGTCGGAGTCACCTAGTGCAG | 10400 fluorescence intensity (a.u.)
43 | CTCTCTCCGTGCCTCGCTAGCTTTTCATGGGGACCCATAGCGGAGTCACCTAGTGCAG | 9780 fluorescence intensity (a.u.)
44 | CTTCTGTTCTGTACAGTTTCTCTCACTTCTTCTATAATATCGGAGTCACCTAGTGCAG | 10400 fluorescence intensity (a.u.)
45 | GCGCCCATCTGCTTATGGTCCACACGCGCCGCGGCGCCAGCGGAGTCACCTAGTGCAG | 9380 fluorescence intensity (a.u.)
46 | TCGCTATCTAATCAACCACTATTCCTTTCTTTCTTCGCTTCGGAGTCACCTAGTGCAG | 10900 fluorescence intensity (a.u.)
47 | CCATACCCGCGAAAAACGCTATTCAATTAGCCTATATAATCGGAGTCACCTAGTGCAG | 10400 fluorescence intensity (a.u.)
48 | GTGTATTTGTGAGGTTTTTTTTGACCGGTTTTCCTTCAAACGGAGTCACCTAGTGCAG | 9470 fluorescence intensity (a.u.)
49 | TGCACACTCCAGCCGATGCCTTCGCAGCCGACGCATACTCCGGAGTCACCTAGTGCAG | 10000 fluorescence intensity (a.u.)
50 | TTATGTGTGCGTGGGCCATTAATTTACACTTGCATGTCAGCGGAGTCACCTAGTGCAG | 9290 fluorescence intensity (a.u.)
51 | TTCATTTTCTTTAACTCTTGGTTCTGTATATATCTCTTTCCGGAGTCACCTAGTGCAG | 8880 fluorescence intensity (a.u.)
52 | GTCACTACTACACTTCATTACGGTCCGCTTACTCTCCTCTCGGAGTCACCTAGTGCAG | 8260 fluorescence intensity (a.u.)
53 | TTTCTATATGGACTCTGCTTTTTCTTTTTCTCTGATTAATCGGAGTCACCTAGTGCAG | 10400 fluorescence intensity (a.u.)
54 | TGTGTGCCTGTTGTCTCATTTGATCTGCCATTTCAGCGCACGGAGTCACCTAGTGCAG | 10700 fluorescence intensity (a.u.)

Source: publication PMC7819943, “Rice protein-binding microarrays: a tool to detect cis-acting elements near promoter regions in rice”
